Experimental data published in PubChem BioAssay AID485353 (National Center for Advancing Translational Sciences (NCATS), 2010).
Hit rate of the full screen: of about 330,000 compounds, about 610 (0.18%) were called active. The shares of active, inactive and inconclusive entries below differ from those in the screen. Calls follow the shape of the full dose curve. Where the call is inconclusive, the potency comes from a doubtful curve fit.

Assay: qHTS of Yeast-based Assay for SARS-CoV PLP; also: nearly all actives have a fitted effect of over 55% in size; as to activity, positive = growth rescue: 0% is about no effect
Settings: S. cerevisiae expressing SARS-CoV PLpro; Potency: growth rescue; activity, positive = growth rescue: at 32.9 µM (top of the series)
Potency is read from the fitted curve at half-maximal effect.

SMILES	Potency	activity, positive = growth rescue
CN1CCN(C(=O)c2ccc(CS(=O)(=O)c3c(Cl)cccc3Cl)o2)CC1	inconclusive: 10 µM [activator, partial curve]	–
COc1cccc(OCC(=O)Nc2c3c(nn2-c2ccc(F)cc2)CS(=O)(=O)C3)c1	inconclusive: 20 µM [activator, single point]	–
N#CC(c1nc2ccccc2nc1OCCO)S(=O)(=O)c1ccccc1 (configuration not stated)	–	inactive: 0.271%
CN(C)N1C(N)=C(C#N)C(c2ccc(Cl)cc2)C2=C1CCCC2=O (configuration not stated)	–	inactive: 0.636%
C=CCn1c(SCC(=O)NC(C)(C)C)nnc1-c1ccccc1O	inconclusive: 12.6 µM [activator, single point]	–
Cc1cc2c(cc1S(=O)(=O)NC1CCCCC1C)OCC(=O)N2 (configuration not stated)	inconclusive: 22.4 µM [activator, single point]	–
Cc1cccc(N2C(=S)NC3c4cc(Cl)ccc4OC2(C)C3C(=O)N(C)C)c1 (configuration not stated)	inconclusive: 22.4 µM [activator, single point]	–
Cc1ccc(C(NC(=O)NC(C)c2ccccc2)C(Cl)(Cl)Cl)cc1F (configuration not stated)	–	inactive: -28.4%
CCN1C/C(=C/c2sccc2C)c2nc3ccccc3c(C(=O)O)c2C1	–	inactive: -2.96%
O=C(NCc1nnc(SCC(=O)N2CCCCCC2)o1)c1ccccc1F	inconclusive: 2 µM [activator, full curve]	–
Cc1ccc(-n2nc(-c3ccco3)cc2C(=O)O)cc1	–	inactive: 1.3%
O=C(NCCCc1ccccc1)c1ccccc1	inconclusive: 10 µM [activator, single point]	–
COc1ccccc1NC(=S)NCc1ccc(Cl)cc1	inconclusive: 20 µM [activator, single point]	–
O=C(CN1C(=O)CCS(=O)(=O)c2ccccc21)NCc1ccc2c(c1)OCO2	inconclusive: 17.8 µM [activator, single point]	–
COc1ccc(CNCc2ccc3ccccc3c2)c(OC)c1	inconclusive: 0.447 µM [activator, full curve]	–
CCC(C)NC(=O)CNC(=O)c1nn(-c2ccc(OC)cc2OC)c(=O)c2ccccc12 (configuration not stated)	–	inactive: -0.35%
CCOc1c2ccc(C(=O)NCc3ccco3)cc2nn1CC	inconclusive: 4.47 µM [activator, single point]	–
Cc1cccc(NS(=O)(=O)c2ccc(C(=O)NCCCN3CCCC3=O)cc2)c1C	inconclusive: 12.6 µM [activator, single point]	–
COc1ccc(Cn2nc(C(=O)O)c3ccccc3c2=O)cc1F	inconclusive: 3.55 µM [activator, single point]	–
O=C(Cc1ccccc1Cl)Nc1ccc(S(=O)(=O)Nc2nccs2)cc1	inconclusive: 20 µM [activator, single point]	–
COc1ccc(C)cc1S(=O)(=O)N(CC(=O)Nc1cccc([N+](=O)[O-])c1)c1ccc(C)cc1	inconclusive: 2.24 µM [activator, partial curve]	–
O=C(N/N=C/C1CC=CCC1)c1cc(Br)ccc1O (configuration not stated)	inconclusive: 11.2 µM [activator, partial curve]	–
COc1cc(OC)cc(-c2c(C#Cc3ccsc3)c3cc(-c4ccc5c(c4)OCO5)ccc3n2C)c1	–	inactive: -2.53%

Some of these compounds in order of molar mass, ascending.
SMILES	Potency	activity, positive = growth rescue
O=C(NCCCc1ccccc1)c1ccccc1	inconclusive: 10 µM [activator, single point]	–
COc1ccc(CNCc2ccc3ccccc3c2)c(OC)c1	inconclusive: 0.447 µM [activator, full curve]	–
CCOc1c2ccc(C(=O)NCc3ccco3)cc2nn1CC	inconclusive: 4.47 µM [activator, single point]	–
O=C(N/N=C/C1CC=CCC1)c1cc(Br)ccc1O (configuration not stated)	inconclusive: 11.2 µM [activator, partial curve]	–
COc1ccc(Cn2nc(C(=O)O)c3ccccc3c2=O)cc1F	inconclusive: 3.55 µM [activator, single point]	–
CN(C)N1C(N)=C(C#N)C(c2ccc(Cl)cc2)C2=C1CCCC2=O (configuration not stated)	–	inactive: 0.636%
C=CCn1c(SCC(=O)NC(C)(C)C)nnc1-c1ccccc1O	inconclusive: 12.6 µM [activator, single point]	–
CCN1C/C(=C/c2sccc2C)c2nc3ccccc3c(C(=O)O)c2C1	–	inactive: -2.96%
N#CC(c1nc2ccccc2nc1OCCO)S(=O)(=O)c1ccccc1 (configuration not stated)	–	inactive: 0.271%
O=C(CN1C(=O)CCS(=O)(=O)c2ccccc21)NCc1ccc2c(c1)OCO2	inconclusive: 17.8 µM [activator, single point]	–
Cc1ccc(C(NC(=O)NC(C)c2ccccc2)C(Cl)(Cl)Cl)cc1F (configuration not stated)	–	inactive: -28.4%
O=C(Cc1ccccc1Cl)Nc1ccc(S(=O)(=O)Nc2nccs2)cc1	inconclusive: 20 µM [activator, single point]	–
Cc1cccc(N2C(=S)NC3c4cc(Cl)ccc4OC2(C)C3C(=O)N(C)C)c1 (configuration not stated)	inconclusive: 22.4 µM [activator, single point]	–
CN1CCN(C(=O)c2ccc(CS(=O)(=O)c3c(Cl)cccc3Cl)o2)CC1	inconclusive: 10 µM [activator, partial curve]	–
COc1cccc(OCC(=O)Nc2c3c(nn2-c2ccc(F)cc2)CS(=O)(=O)C3)c1	inconclusive: 20 µM [activator, single point]	–
CCC(C)NC(=O)CNC(=O)c1nn(-c2ccc(OC)cc2OC)c(=O)c2ccccc12 (configuration not stated)	–	inactive: -0.35%
COc1ccc(C)cc1S(=O)(=O)N(CC(=O)Nc1cccc([N+](=O)[O-])c1)c1ccc(C)cc1	inconclusive: 2.24 µM [activator, partial curve]	–
COc1cc(OC)cc(-c2c(C#Cc3ccsc3)c3cc(-c4ccc5c(c4)OCO5)ccc3n2C)c1	–	inactive: -2.53%

(continued)

SMILES	Potency	activity, positive = growth rescue
CCOc1ccc(C(c2c(NC(=O)c3ccccc3)sc(C)c2C)N2CCN(CCO)CC2)cc1 (configuration not stated)	inconclusive: 2.24 µM [activator, single point]	–
CCC1CN(C(=O)N2CCC(C(=O)NCc3ccc(OC)cc3OC)CC2)c2ccccc2O1 (configuration not stated)	inconclusive: 11.2 µM [activator, single point]	–
O=c1cc2oc3cc(O)c(O)cc3c(-c3ccccc3[N+](=O)[O-])c-2cc1O	inconclusive: 3.16 µM [activator, full curve]	–
O=C(CN1C(=O)CSc2ccc(S(=O)(=O)N3CCCCC3)cc21)NCc1cccnc1	inconclusive: 0.891 µM [activator, full curve, poor fit]	–
O=C(O)c1ccc(N2C(=O)CC(N3CCN(c4cccc(Cl)c4)CC3)C2=O)cc1 (configuration not stated)	–	inactive: 4.7%
O=C(N/N=C/c1ccco1)C1CC1c1ccccc1 (configuration not stated)	–	inactive: 0.825%
CN(Cc1ccccc1)C(=C(Cl)Cl)C(=C1NCCN1)[N+](=O)[O-]	–	inactive: -2.63%
CCCCC(=O)Nc1c(O)c2ccccc2[nH]c1=O	inconclusive: 2.51 µM [activator, partial curve]	–
O=C(Cn1cnc(S(=O)(=O)N2CCOCC2)c1)Nc1ccc(OC(F)(F)F)cc1	–	inactive: -0.658%
Cc1csc(=O)n1CCC(=O)OCC(=O)N(CC(C)C)c1c(N)n(Cc2ccccc2)c(=O)[nH]c1=O	inconclusive: 3.16 µM [activator, partial curve]	–
N=C1/C(=C\c2ccc(OC(=O)c3ccccc3Cl)cc2)C(=O)N=C2SC(N3CCOCC3)=NN12	–	inactive: -6.6%
O=C(Nc1scc(-c2ccccc2)c1C(=O)O)c1ccc(F)cc1	inconclusive: 2.51 µM [activator, single point]	–
COc1ccc(C(C(=O)NC(C)(C)C)N(CC2CCCO2)C(=O)CCC(=O)Nc2cc(C)on2)cc1 (configuration not stated)	inconclusive: 2.51 µM [activator, single point]	–
CCn1c(SCC(=O)Nc2ccc(C(C)=O)cc2)nc2c([nH]c3ccccc32)c1=O	inconclusive: 3.55 µM [activator, single point]	–
CCNC(=S)N(Cc1cc2cc(C)ccc2[nH]c1=O)C1CCCC1	inconclusive: 12.6 µM [activator, partial curve]	–
CCN(CC1CCCN(CCc2cccc(OC)c2)C1)C(=O)c1ccoc1 (configuration not stated)	inconclusive: 2 µM [activator, full curve]	–
COc1ccc(NC(=O)C2CCN(S(=O)(=O)c3ccc(Br)s3)CC2)cc1OC	inconclusive: 4.47 µM [activator, partial curve]	–
CCCCCN(C(=O)NC(=O)Nc1ccccc1C)S(=O)(=O)c1ccccc1	inconclusive: 15.8 µM [activator, single point]	–
CCOC(=O)c1cc(C)n(CCc2ccccc2)c1C	–	inactive: -0.196%
CN(CCNC(=O)Cn1c(=O)sc2ccccc21)Cc1ccccc1	inconclusive: 3.55 µM [activator, single point]	–
COc1ccc(/C=C/C(=O)NCC(=O)N/N=C/c2cccs2)cc1	inconclusive: 3.98 µM [activator, single point]	–
Cc1ccc2oc(-c3ccc(C)c(NC(=O)Cc4cccs4)c3)nc2c1	inconclusive: 20 µM [activator, single point]	–
O=C(N1CCCC1)C12CC3CC(CC(C3)C1)C2	inconclusive: 22.4 µM [activator, partial curve, poor fit]	–

SMILES	Potency	activity, positive = growth rescue
Cc1ccn2c(Nc3ccc4c(c3)OCO4)c(-c3ccccn3)nc2c1	inconclusive: 0.355 µM [activator, full curve, poor fit]	–
O=C(NCC1CCCO1)c1cccc(Oc2ccccc2)c1 (configuration not stated)	inconclusive: 4.47 µM [activator, single point]	–
CCN(CC)S(=O)(=O)c1ccc2c(c1)c(=O)c(C(=O)NCc1ccc3c(c1)OCO3)cn2C	–	inactive: -3.54%
Cc1ccc2nc3c(cc(C#N)c(=O)n3-c3nccs3)c(=O)n2c1	inconclusive: 3.98 µM [activator, single point]	–
COc1cc(CNCC(C)C)c(Br)cc1OCC(=O)NCc1ccccc1	inconclusive: 4.47 µM [activator, single point]	–
O=C(CCC1N=C2c3ccccc3N=C(SCc3ccc(F)cc3)N2C1=O)NCc1ccco1 (configuration not stated)	inconclusive: 11.2 µM [activator, partial curve]	–
CCOC(=O)c1c(S(=O)(=O)NCC(=O)NCc2ccccc2)c(C)n(C)c1C	inconclusive: 4.47 µM [activator, single point]	–
Cc1cc(OCc2cc(C(=O)NCC3(C)COC3)no2)cc(C)c1Cl	inconclusive: 2 µM [activator, single point]	–
O=C(N/N=C\c1cccc(Cl)c1)c1ccc(Cn2cc(Br)c([N+](=O)[O-])n2)o1	inconclusive: 20 µM [activator, single point]	–
CCN(Cc1ccccc1)S(=O)(=O)c1ccc(C(=O)N2CCN(c3nc4ccccc4s3)CC2)cc1	active: 2.82 µM	–
CSCC[C@H](NC(=O)N1CCn2c1nc1ccccc12)C(=O)NCc1ccc(C)cc1	inconclusive: 11.2 µM [activator, single point]	–
Cc1cc(NC(=O)c2ccc(NC(=O)C(C)C)cc2)no1	–	inactive: -0.606%
COc1ccc(C(=O)CC(=O)C(=O)Nc2cc(Cl)c(OC)cc2OC)cc1	inconclusive: 3.98 µM [activator, single point]	–
C#CCSc1nnc(CSc2nc3ccccc3s2)n1-c1ccccc1	inconclusive: 20 µM [activator, single point]	–
CCC(=O)Nc1ccc(NC(=O)Cc2ccccc2)cn1	–	inactive: 6.28%
CCOC(=O)C1=C(C)N(C)C(=S)NC1c1ccc(Cl)cc1 (configuration not stated)	inconclusive: 20 µM [activator, single point]	–
CC(C)(C)c1cc(CCC(=O)NNC(=S)NC(=O)c2ccccc2)cc(C(C)(C)C)c1O	active: 5.01 µM	–
COc1ccc(/C=N/NC(=S)Nc2ccccc2)cc1COc1ccc(F)cc1F	–	inactive: 9.69%
COc1ccc2c(c1)C1(Nc3ccccc3C(=O)N1c1ccccc1)C(=O)N2 (configuration not stated)	inconclusive: 3.16 µM [activator, single point]	–
Cc1cc(Cl)ccc1OCC(=O)N/N=C1\CC2C=CCC12 (configuration not stated)	inconclusive: 4.47 µM [activator, single point]	–
Cc1ccc(S(=O)(=O)N/N=C\C=C\c2ccccc2)cc1	inconclusive: 4.47 µM [activator, single point]	–
